Values quoted from earlier work in patent US20260327217A1, “THIAZOLE DERIVATIVES AS TAU AGGREGATION INHIBITORS” (WisTa Laboratories Ltd., priority 2022, published 2026).
At least one read-out could not be matched to a standard name with certainty.

Settings: clinical, previously reported; read-out: estimated steady state brain concentration with clinical pharmacological activity; cited from earlier work

CN(C)c1ccc2c(c1)Sc1cc(N(C)C)ccc1N2 [HMT, Hydromethylthionine, reference compound]
concentration: ~100 nM
